In the supplement of paper PMC3334620:
The full ranking holds about 33,000 sequences; the median of “E-score (-0.5 to 0.5)” is about -0.016, and the highest 2% start at about 0.3. This is one part of the list.

Biological target: T1, Yer184c (UniProt P39961)
T1 sequence: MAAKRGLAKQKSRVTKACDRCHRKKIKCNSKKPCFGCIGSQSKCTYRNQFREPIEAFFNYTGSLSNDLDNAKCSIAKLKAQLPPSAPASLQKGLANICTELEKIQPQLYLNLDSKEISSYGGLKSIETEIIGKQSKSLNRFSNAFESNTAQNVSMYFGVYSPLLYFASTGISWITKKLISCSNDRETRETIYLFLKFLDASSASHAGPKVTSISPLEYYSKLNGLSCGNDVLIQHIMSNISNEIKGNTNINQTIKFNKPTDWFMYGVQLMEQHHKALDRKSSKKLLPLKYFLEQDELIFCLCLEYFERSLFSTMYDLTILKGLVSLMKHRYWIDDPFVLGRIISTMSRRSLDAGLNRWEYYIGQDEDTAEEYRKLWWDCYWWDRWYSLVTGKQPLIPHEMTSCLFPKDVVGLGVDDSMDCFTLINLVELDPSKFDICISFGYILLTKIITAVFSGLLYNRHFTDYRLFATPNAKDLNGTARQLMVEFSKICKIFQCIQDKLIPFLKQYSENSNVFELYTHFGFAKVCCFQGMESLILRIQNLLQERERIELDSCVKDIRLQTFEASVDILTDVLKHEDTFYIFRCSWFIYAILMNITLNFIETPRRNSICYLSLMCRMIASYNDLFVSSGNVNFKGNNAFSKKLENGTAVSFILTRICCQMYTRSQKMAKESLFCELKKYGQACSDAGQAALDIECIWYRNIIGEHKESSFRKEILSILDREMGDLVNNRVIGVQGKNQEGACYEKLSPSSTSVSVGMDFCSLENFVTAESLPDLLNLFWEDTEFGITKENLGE
Test: PBM E-score (8-mer binding enrichment) (E-score (-0.5 to 0.5)); higher = stronger / more preferred TF binding
Settings: protein concentration: 100 nM; construct: GST-full length
Protocol: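 Universal 'all 10-mer' protein binding microarrays (Agilent AMADID 015681) probed with GST-tagged S. cerevisiae TFs (full-length or DBD) made by in vitro transcription/translation (PURExpress), about 100-200 nM. Bound TF was detected with fluorescent anti-GST. Each ungapped 8-mer (which stands for itself and its reverse complement) is scored by the PBM enrichment score (E-score), a modified Wilcoxon-Mann-Whitney statistic from -0.5 to +0.5, computed with the Universal PBM Analysis Suite. Scale: above 0.35 generally sequence-specific binding.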

Sequence	PBM E-score
GCTGATGA	-0.015
ACCTCGCA	-0.114
AACAGCAA	0.0855
CGCCAAGC	-0.184
ACACACGC	-0.00408
AACCGTGA	0.0722
CTCAGAAA	0.0154
CTTACCCC	-0.258
ACTTGTTG	-0.279
AGTACGCA	-0.208
AAGAGACG	0.172
ATGTACCG	0.0916
AAGGAGTG	-0.146
ACCAATAT	0.0712
CAGACTAA	0.101
CGGCTCTA	0.267
ACGCAATG	-0.176
CGGCCATA	0.0112
CGCCATAG	-0.127
ATAGCACC	-0.0386
AGGTCTTA	-0.0941
ATGTAAAG	0.0647
CAGCATAG	0.0287
CAGAGTCG	-0.195
GAGACCTC	-0.086

Sequence	PBM E-score
CACGGTGA	-0.0122
CTCGGCGC	0.357
GTACGTAC	-0.138
GTCATTCA	0.0449
GCAAAACA	0.0139
AATACTAT	0.0915
CGCGGGGA	0.125
ACCCGTAA	-0.0644
CCCTCGAC	-0.174
CGTCGGCC	0.233
ATGACAAG	-0.0717
GAGCCTTA	-0.125
GACTTGGC	-0.19
CAAGACCA	-0.0843
ATAGAATA	0.171
AAGGAGGC	-0.305
GTCTGCTA	0.136
CCCCCTCG	-0.289
ACTTCTGC	-0.0109
CATGACGC	-0.191
ATTATGGG	-0.174
AAGATATA	0.104
CTGCAACA	0.152
CCTGTGTA	-0.029
ATCTATCA	0.148

Sequence	PBM E-score
AGAGATAC	-0.0106
AGGGTGTC	-0.182
CAGGAGAG	-0.152
CCAAGAGG	-0.18
AGAGCAAA	-0.0476
GGCTACCC	-0.147
GGATCCGA	0.242
GACATGTC	-0.298
AAAAAACA	0.198
ACCCGGAC	0.055
ATTATCTA	0.183
GTTATGCA	-0.178
GAAGGCGA	-0.176
ATCATACC	0.0582
CCTGCCTA	0.0375
AGTTGTTG	-0.0477
CAGAGCGG	-0.0765
ATATACTA	0.195
CCCGTGTA	-0.0128
AAGAAACG	0.139
CCTGAGAA	0.0534
TCAGTCGA	-0.0884
GCTGCACC	-0.179
CGCATTAC	0.0155
CTACCATC	-0.174

Sequence	PBM E-score
ATCTCATA	0.0683
AGAGCTTA	0.0135
AACTGTAA	0.0303
CCCGGAAC	0.298
GAGGCCGC	-0.19
ACCTCATC	-0.085
CGGGCTTA	0.157
CGGACCCG	0.27
CGTAACTA	0.00684
AAAAGAGC	-0.134
AGTATATC	0.155
ATGTAGGA	-0.082
CGGTTTTC	0.209
ATCGACAT	0.137
CGTTCGGC	0.27
GTGGGACA	-0.0231
CAAGTCCC	-0.218
GACCGTAC	-0.238
CACTGAAA	0.146
ATGTCCAC	-0.0872
ATCCTATA	-0.0164
CGATAATC	-0.0814
ACGTCACC	-0.219
AGCGGGTG	-0.187
GATTACAC	0.0435

Sequence	PBM E-score
ACCTTCAC	-0.132
ATATTATC	0.202
GCAAGGGA	-0.235
AGTCGCTA	-0.185
CATAGCCA	-0.125
CTAGGCCC	-0.287
AGCGAGCA	-0.0248
GTCGCCTA	-0.157
CCACGGAC	-0.00729
CGAGCCAA	-0.014
ACACCAGG	-0.0909
CTCGCTCC	-0.0425
AAATCAAC	-0.0185
AGGTATTC	0.0402
ACGCGGGC	0.025
AATACGCA	-0.13
GACGCCTC	-0.061
GGGAATTA	0.151
CACTCTAA	-0.0551
ACCGTTAC	-0.0242
GCAGTTAC	0.0774
CATTATAG	0.0733
CGAATGAC	0.239
GTAAAGAA	0.177
CATTTAAG	-0.0595

Sequence	PBM E-score
CGTAGCTC	-0.0585
AAGAAGGC	-0.231
TCGATTCA	-0.0147
CCTCATCA	-0.0278
GTTACAGA	-0.174
ATCTCTCG	0.116
CCCACGCC	-0.194
ATACGAAT	0.0699
GCATAGCA	-0.0886
AGGTGCAC	-0.148
AAGTTTAT	0.177
GACCTTGC	-0.14
AGATCATA	0.0944
CCGCAAGA	0.11
ACAGAAAA	0.253
AATATAGA	0.181
AAACTCCT	-0.18
CACTACTA	0.0715
ATTCGCAA	0.128
AAAGGCAA	-0.0472
CACCCATG	-0.214
GGGGTCTA	0.0612
GTATCCCA	-0.0951
AAGGTTAT	0.0308
AACCGAGT	0.0155

Reprinted at random: 6 records from the list, in no set order.
Sequence	PBM E-score
CCGCAAGA	0.11
ACAGAAAA	0.253
AGGTGCAC	-0.148
AAGTTTAT	0.177
GTATCCCA	-0.0951
CGTAGCTC	-0.0585

Next results

Sequence	PBM E-score
CAAAGCTG	0.0917
CCTGCGTA	-0.0742
AACTGTTA	0.0489
CAATAAGC	0.0333
AGTAGTAC	0.193
ATATGAGC	-0.0199
GGCATACC	-0.214
AGTGCGTG	0.00693
GACCGAAC	0.33
ATGAGACA	0.0383
GCATCGCC	0.0483
GGCAAAGA	0.179
ACACGTCG	-0.206
GAGTGGCC	-0.0531
AATGGTTC	0.0961
ACGCCTGA	0.0672
GTGACTTA	-0.0935
CATTTGGC	0.16
AAGGTAAG	-0.0997
TATGCGCA	-0.133
ATGACTTC	-0.0148
CGCAAGCC	0.0164

An excerpt of these results, in CSV form:
Sequence,PBM E-score
AGTGCGTG,0.00693
GACCGAAC,0.33
ATGAGACA,0.0383
GCATCGCC,0.0483
GGCAAAGA,0.179
ACACGTCG,-0.206
